Some of the results follow.

Sequences of proteins named here, by UniProt entry; tags and fusion partners are left off. A change or cut given only in a name is not applied to a line headed by its entry.
UniProt O14578, whole entry, looked up: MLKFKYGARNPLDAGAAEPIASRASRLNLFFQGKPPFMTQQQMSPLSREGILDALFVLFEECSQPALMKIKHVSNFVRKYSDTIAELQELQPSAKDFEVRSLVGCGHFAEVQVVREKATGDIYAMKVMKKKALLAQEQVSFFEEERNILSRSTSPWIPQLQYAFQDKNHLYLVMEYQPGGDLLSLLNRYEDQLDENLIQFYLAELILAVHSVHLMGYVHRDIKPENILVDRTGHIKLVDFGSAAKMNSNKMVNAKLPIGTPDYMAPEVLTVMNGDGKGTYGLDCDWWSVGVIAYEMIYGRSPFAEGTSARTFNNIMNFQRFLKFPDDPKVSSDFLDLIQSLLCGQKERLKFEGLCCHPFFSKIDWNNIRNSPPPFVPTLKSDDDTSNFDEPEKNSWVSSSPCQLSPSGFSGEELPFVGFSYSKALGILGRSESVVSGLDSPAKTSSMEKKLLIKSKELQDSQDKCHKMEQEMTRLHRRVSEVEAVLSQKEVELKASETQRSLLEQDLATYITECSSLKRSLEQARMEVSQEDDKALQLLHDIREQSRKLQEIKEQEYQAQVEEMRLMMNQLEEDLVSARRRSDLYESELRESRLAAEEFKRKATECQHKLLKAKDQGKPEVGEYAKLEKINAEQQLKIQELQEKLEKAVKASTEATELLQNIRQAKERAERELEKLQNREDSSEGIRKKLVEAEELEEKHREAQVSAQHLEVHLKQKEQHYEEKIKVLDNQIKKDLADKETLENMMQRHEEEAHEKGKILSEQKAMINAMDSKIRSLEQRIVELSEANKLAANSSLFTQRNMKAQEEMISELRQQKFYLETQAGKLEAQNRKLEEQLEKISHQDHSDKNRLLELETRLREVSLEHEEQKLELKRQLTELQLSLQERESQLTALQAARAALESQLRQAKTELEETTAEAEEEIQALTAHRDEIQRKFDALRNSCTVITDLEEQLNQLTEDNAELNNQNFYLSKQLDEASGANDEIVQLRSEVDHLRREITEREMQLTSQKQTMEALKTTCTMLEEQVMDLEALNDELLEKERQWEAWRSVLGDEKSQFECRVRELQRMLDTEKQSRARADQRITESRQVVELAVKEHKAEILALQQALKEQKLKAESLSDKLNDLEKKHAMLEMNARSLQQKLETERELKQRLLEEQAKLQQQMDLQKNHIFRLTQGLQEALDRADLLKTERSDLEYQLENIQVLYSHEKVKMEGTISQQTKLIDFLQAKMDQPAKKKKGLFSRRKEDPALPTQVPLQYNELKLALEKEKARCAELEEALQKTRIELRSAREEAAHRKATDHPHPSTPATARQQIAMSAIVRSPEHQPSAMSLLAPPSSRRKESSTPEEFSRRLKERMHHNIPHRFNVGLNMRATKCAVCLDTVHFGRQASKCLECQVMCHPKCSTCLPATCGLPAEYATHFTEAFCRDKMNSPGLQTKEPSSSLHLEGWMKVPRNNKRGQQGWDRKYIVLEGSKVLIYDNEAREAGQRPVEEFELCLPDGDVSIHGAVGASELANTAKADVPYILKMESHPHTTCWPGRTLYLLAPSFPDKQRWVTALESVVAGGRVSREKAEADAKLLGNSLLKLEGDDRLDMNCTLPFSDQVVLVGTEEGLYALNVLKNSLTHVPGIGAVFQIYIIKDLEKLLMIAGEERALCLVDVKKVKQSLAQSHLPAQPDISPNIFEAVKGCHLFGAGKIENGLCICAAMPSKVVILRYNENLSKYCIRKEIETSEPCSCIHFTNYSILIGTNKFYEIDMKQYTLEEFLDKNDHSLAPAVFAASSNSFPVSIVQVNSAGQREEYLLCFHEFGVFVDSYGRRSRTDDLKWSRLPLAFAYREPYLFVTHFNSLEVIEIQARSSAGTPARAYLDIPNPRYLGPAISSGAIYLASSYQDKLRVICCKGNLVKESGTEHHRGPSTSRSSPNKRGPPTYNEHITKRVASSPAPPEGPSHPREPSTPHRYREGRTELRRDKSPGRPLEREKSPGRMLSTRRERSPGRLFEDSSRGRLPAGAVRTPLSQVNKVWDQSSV
UniProt O14757: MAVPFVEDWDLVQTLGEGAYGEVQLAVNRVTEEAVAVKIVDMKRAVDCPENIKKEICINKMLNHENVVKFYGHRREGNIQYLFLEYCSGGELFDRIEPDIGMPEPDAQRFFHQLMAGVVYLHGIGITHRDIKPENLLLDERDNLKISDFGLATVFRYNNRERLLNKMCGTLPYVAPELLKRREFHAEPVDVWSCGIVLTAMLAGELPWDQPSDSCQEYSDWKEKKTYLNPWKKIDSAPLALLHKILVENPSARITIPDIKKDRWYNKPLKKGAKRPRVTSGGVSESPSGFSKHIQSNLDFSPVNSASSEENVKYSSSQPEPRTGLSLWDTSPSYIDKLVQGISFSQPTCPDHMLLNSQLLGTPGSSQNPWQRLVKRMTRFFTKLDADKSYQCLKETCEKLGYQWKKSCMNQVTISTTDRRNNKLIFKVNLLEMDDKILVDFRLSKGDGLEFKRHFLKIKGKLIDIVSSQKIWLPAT
UniProt Q5T1J5: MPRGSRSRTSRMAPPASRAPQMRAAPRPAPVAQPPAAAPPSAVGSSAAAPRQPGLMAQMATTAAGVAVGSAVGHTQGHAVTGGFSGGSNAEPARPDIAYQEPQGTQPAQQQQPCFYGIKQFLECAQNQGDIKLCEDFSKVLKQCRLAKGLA
UniProt Q14011: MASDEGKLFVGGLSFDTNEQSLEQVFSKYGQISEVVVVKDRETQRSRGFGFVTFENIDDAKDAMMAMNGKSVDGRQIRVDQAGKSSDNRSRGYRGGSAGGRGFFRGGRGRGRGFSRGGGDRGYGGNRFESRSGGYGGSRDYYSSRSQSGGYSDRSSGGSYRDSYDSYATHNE
UniProt P35790, whole entry, looked up: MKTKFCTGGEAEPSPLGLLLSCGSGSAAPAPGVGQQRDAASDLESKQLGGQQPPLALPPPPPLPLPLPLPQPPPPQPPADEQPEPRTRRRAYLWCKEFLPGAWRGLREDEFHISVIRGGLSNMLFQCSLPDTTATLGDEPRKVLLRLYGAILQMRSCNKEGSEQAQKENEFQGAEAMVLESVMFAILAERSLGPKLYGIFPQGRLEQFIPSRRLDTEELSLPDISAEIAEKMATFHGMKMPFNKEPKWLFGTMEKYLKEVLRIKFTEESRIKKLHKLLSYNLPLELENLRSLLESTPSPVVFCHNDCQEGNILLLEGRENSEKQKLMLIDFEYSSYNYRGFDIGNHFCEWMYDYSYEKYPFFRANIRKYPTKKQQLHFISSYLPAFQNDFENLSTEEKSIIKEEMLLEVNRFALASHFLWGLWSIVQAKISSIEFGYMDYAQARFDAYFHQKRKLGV
UniProt P06732: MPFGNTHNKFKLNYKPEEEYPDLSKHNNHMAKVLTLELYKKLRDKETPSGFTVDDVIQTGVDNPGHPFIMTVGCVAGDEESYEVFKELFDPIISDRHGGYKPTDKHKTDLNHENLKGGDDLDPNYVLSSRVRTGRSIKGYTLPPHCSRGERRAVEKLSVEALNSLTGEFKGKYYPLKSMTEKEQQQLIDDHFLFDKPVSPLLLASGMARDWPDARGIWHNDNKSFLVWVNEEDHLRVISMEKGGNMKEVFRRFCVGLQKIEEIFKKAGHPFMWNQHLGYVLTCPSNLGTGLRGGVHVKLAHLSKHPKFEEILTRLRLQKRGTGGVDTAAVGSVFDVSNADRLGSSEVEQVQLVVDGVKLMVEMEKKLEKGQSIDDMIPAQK
UniProt Q9BWS9: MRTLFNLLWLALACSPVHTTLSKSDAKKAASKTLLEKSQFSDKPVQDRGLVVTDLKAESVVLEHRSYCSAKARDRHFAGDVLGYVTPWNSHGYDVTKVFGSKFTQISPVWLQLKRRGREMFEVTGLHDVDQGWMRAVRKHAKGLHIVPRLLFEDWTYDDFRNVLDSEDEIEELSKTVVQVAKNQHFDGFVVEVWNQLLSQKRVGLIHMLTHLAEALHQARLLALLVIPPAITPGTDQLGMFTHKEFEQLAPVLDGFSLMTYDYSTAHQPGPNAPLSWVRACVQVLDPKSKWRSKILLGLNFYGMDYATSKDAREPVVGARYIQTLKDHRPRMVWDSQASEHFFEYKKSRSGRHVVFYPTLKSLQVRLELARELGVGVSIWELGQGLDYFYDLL
UniProt Q9BY43: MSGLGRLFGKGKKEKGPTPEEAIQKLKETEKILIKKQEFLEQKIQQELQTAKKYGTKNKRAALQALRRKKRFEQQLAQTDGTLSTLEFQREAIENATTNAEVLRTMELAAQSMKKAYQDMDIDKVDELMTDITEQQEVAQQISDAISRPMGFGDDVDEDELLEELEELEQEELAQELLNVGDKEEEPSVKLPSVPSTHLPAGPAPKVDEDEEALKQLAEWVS
UniProt Q9NZZ3: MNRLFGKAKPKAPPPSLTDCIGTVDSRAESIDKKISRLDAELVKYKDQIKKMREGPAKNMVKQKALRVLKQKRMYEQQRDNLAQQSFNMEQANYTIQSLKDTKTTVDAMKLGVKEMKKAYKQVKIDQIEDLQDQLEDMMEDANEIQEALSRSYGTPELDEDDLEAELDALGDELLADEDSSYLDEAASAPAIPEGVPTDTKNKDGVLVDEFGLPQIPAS
UniProt Q7Z7K0: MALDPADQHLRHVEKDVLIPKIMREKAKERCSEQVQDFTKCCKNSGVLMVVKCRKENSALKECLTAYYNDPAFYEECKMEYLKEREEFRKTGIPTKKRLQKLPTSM
UniProt Q9NX63: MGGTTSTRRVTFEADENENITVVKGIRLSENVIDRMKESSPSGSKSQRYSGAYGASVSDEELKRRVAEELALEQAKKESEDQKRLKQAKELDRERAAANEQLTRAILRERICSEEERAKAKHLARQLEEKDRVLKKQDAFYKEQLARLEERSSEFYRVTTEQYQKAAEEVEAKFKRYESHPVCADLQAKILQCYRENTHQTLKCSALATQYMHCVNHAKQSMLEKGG
UniProt O14646: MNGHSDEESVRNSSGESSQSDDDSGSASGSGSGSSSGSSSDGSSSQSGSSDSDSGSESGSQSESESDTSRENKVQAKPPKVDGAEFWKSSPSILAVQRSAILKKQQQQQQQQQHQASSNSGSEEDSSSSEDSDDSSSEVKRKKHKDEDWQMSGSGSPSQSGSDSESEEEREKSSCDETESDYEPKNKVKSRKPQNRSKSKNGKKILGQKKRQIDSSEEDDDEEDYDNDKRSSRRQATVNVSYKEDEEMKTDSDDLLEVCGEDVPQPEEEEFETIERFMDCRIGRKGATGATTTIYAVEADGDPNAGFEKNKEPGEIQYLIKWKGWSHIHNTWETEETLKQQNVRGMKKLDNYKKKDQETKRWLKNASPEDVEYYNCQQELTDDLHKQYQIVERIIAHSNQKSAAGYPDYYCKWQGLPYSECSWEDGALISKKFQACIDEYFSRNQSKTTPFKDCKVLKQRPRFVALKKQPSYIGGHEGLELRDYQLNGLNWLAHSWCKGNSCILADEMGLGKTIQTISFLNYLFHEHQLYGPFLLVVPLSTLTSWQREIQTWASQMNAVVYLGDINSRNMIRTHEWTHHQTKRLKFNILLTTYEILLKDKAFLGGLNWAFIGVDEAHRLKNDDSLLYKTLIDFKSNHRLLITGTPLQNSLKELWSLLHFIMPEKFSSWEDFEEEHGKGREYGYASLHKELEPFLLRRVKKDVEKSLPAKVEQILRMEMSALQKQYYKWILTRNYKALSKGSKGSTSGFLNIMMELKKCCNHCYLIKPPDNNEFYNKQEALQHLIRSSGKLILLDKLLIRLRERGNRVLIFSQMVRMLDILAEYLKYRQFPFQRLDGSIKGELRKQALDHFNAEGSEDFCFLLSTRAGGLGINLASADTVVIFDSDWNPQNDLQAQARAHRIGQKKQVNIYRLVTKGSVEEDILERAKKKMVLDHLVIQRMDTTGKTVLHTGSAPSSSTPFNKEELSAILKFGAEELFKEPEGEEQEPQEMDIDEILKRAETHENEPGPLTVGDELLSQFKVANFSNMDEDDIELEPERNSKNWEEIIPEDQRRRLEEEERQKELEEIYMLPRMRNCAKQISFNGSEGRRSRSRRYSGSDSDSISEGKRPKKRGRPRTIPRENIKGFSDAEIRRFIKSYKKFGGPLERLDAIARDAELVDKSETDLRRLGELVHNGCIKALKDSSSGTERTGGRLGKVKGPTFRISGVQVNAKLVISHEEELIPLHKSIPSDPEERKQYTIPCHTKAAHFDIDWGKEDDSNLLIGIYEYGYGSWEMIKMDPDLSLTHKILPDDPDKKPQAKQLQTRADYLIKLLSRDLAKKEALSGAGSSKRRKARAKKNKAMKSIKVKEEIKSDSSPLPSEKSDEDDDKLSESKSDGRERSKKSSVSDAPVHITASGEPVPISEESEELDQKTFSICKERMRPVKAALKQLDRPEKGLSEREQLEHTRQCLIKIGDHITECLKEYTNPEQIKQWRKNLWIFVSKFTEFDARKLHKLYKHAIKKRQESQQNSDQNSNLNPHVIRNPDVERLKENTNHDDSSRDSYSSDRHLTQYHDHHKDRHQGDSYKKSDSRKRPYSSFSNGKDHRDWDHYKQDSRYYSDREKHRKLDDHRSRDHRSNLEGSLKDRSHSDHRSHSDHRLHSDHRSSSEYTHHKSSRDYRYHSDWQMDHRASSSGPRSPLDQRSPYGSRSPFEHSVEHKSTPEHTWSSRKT

Among the data in the supplement of paper PMC10849652 are log2 fold change values, retold here.

Compound in the assay: C1CCN(C1)C(=O)NC2=CC=CC(=C2)NC3=NC=C(C(=N3)NCCC4=CN=CN4)Br
The assay is described as follows: log2 fold change, soluble protein after heating vs DMSO (PISA); higher = thermal stabilisation; K562 lysate, 10 uM; active = over 0.2 and 3.5 SD of the protein, either way, in both replicates (recomputed). The gist of the method:
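Values give the log-two fold change in thermal stability against solvent controls, from duplicates. Crude K562 extract at 1 mg/mL protein, made by dounce homogenisation in PBS pH 7.4 with 1 mM MgCl2, was treated with 10 μM compound for 30 min. After 3 min heating across 48°C-58°C, aliquots were pooled, adjusted to 0.5% NP-40 at 4°C and centrifuged at 21,000xg for 90 min. The supernatant was measured by TMTpro 16plex LC-MS/MS with channel sums equalised.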
Turning to CIT isoform 4 (UniProt O14578), the log2 fold change is inactive: -0.003. CHEK1 (UniProt O14757): the log2 fold change was inactive: -0.108. Regarding CHCHD2P9 (UniProt Q5T1J5), the log2 fold change is inactive: -0.049. As for CIRBP (UniProt Q14011), the log2 fold change was inactive: 0.033. In the case of CMIP (UniProt Q8IY22), the log2 fold change was inactive: -0.001. For the target CHKA (UniProt P35790), the log2 fold change was inactive: 0.007. CHCHD4 isoform 2 (UniProt Q8N4Q1): the log2 fold change was inactive: -0.044. For CHM (UniProt P24386), the log2 fold change was inactive: -0.02.

For CKM (UniProt P06732), the log2 fold change was inactive: -0.017. Next, CHID1 (UniProt Q9BWS9): inactive: -0.002. CMSS1 (UniProt Q9BQ75): the log2 fold change was inactive: -0.011.

Consider CHMP4A isoform 2 (UniProt Q9BY43), for which the log2 fold change is inactive: 0.014.

Turning to CNBP isoform 4 (UniProt P62633), the log2 fold change is inactive: 0.094. For the target CHMP5 (UniProt Q9NZZ3), the log2 fold change was inactive: 0.015. Next, CMC1 (UniProt Q7Z7K0): inactive: 0.05.

Consider CHCHD3 (UniProt Q9NX63), for which the log2 fold change is inactive: 0.007. Under CMTM3 (UniProt Q96MX0) stands inactive: -0.083; under CIAO2B (UniProt Q9Y3D0), inactive: 0.072; under CKMT2 (UniProt P17540), inactive: 0.018. As to CHRAC1 (UniProt Q9NRG0), the log2 fold change was inactive: -0.008. In the case of CISD2 (UniProt Q8N5K1), the log2 fold change was inactive: -0.005.

For the target CIZ1 (UniProt Q9ULV3), the log2 fold change was inactive: -0.017.

Consider CHD1 (UniProt O14646), for which the log2 fold change is inactive: -0.02.
